Here are results for three molecules from patent US7977431B2, “Dithiocarbamic esters” (LANXESS Deutschland GmbH, priority 2002, dated 2011).

Data set [1] in a line: Emulsion copolymerization of 94 parts chloroprene and 6 parts 2,3-dichlorobutadiene with regulator, version A. The conditions noted are these: Table 3, version A, 0.233 pts. of regulator, conversion 60%.
The nature of data set [2]: Emulsion polymerization of chloroprene with regulator, version A (formamidinesulphinic acid initiation, 45 C). The conditions noted are these: for Mn: number-average molecular weight by GPC, 15 mmol regulator, version A.
A short description of data set [3]: Emulsion polymerization of chloroprene with regulator, version B (redox activation PPS/NHS, 10° C). The conditions noted are these: Table 3, version B, 0.116 pts. of regulator, conversion 60%.
The mark [4] stands for this setting: 0.075 parts of regulator, conversion 25%.
[5] abbreviates: 0.075 parts of regulator, conversion 41%.
Setting [6] is: 0.075 parts of regulator, conversion 61%.
[7] abbreviates: 0.116 parts of regulator, conversion 20%.
The mark [8] stands for this setting: 0.116 parts of regulator, conversion 39%.
Setting [9] is: 0.116 parts of regulator, conversion 60%.
Setting [10] is: 0.233 parts of regulator, conversion 21%.
[11] abbreviates: 0.233 parts of regulator, conversion 41%.
Where [12] appears, read: 0.233 parts of regulator, conversion 61%.
Setting [13] is: 0.35 parts of regulator, conversion 19%.
Where [14] appears, read: 0.35 parts of regulator, conversion 43%.
The mark [15] stands for this setting: 0.35 parts of regulator, conversion 60%.
Where [16] appears, read: Table 3, version A, 0.116 pts. of regulator, conversion 60%.
Setting [17] is: Table 3, version A, 0.35 pts. of regulator, conversion 60%.
The mark [18] stands for this setting: Table 3, version A, 0.233 pts. of regulator, conversion 60%.
Where [19] appears, read: 0.75 parts of regulator, conversion 20%.
Setting [20] is: 0.75 parts of regulator, conversion 40%.
Where [21] appears, read: 0.75 parts of regulator, conversion 60%.

`C/C(Cl)=C/CSC(=S)n1cccc1` [Regulator compound (1), 3-chloro-2-butenyl 1H-pyrrole-1-carbodithioate]: the “Mn (GPC)” value is 74 000 in data set [1]; 102 000 in data set [2] (setting [4]); 127 000 in data set [2] (setting [5]); 190 000 in data set [2] (setting [6]); 56 500 in data set [2] (setting [7]); 84 600 in data set [2] (setting [8]). Moreover, the “Mn (GPC)” value is on record as 131 800 in data set [2] (setting [9]); 33 500 in data set [2] (setting [10]); 53 600 in data set [2] (setting [11]); 72 800 in data set [2] (setting [12]); 14 000 in data set [2] (setting [13]); 36 000 in data set [2] (setting [14]). The “Mn (GPC)” value in data set [2] (setting [15]) is given as 49 000; in data set [2] (setting [16]), 130 000; in data set [2] (setting [17]), 49 000. The Mw/Mn in data set [1] came out at 1.6; in data set [2] (setting [4]) it was 1.8; in data set [2] (setting [5]), 1.8; in data set [2] (setting [6]), 2.3; in data set [2] (setting [7]) it was 1.6; in data set [2] (setting [8]) it was 1.6. For the same molecule, the Mw/Mn turned out to be 1.8 in data set [2] (setting [9]); 1.7 in data set [2] (setting [10]); 1.7 in data set [2] (setting [11]); 2.5 in data set [2] (setting [12]); 2.4 in data set [2] (setting [13]); 1.5 in data set [2] (setting [14]). Moreover, the Mw/Mn came out at 1.5 in data set [2] (setting [15]), 1.8 in data set [2] (setting [16]), 1.5 in data set [2] (setting [17]) and 1.7 in data set [3]. The Mn in data set [2] was 50000.

Consider `C/C(Cl)=C/CSC(=S)n1ccnc1` [Regulator compound (2), 3-chloro-2-butenyl 1H-imidazole-1-carbodithioate], for which, in data set [2] (setting [18]), the “Mn (GPC)” value is listed as 115 000 and the Mw/Mn was 2.0. In addition, in data set [2], the Mn is 101000.

For `CCC1(COC(=S)SSC(=S)OCC2(CC)COCOC2)COCOC1` [Regulator compound (7), Methylenetrimeth-ylolpropane-xanthogen disulphide, reference compound], the figures for the “Mn (GPC)” value in data set [2] (setting [19]), in data set [2] (setting [20]) and in data set [2] (setting [21]) were 148 700, 142 000 and 148 700, respectively. Besides, the Mw/Mn in data set [2] (setting [19]) was 2.1; in data set [2] (setting [20]), 2.3; in data set [2] (setting [21]), 2.6. In addition, the Mn in data set [2] was determined as 168000.
